According to patent EP4659808A2 (Sanofi, dated 2025):
These are yes or no findings as the source states them, for the method shown. In cells and extracts the contact can be indirect. Some binding calls cover weakened binding; strength is not graded here.

Target: T1, endogenous beta-DG (C2C12 cell lysate; mouse muscle tissue sections) (mouse), Q62165
T1 chain: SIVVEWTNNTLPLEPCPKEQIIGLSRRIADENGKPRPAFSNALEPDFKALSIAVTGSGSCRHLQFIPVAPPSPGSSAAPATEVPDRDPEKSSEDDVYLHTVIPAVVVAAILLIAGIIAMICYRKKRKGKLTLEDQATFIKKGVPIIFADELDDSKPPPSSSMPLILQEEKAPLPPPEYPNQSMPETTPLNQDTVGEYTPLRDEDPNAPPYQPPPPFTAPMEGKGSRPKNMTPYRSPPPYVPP
Test: co-immunoprecipitation from C2C12 lysate, Western blot
Settings: remark: other sources report otherwise

B1: endogenous alpha-DG from C2C12 cell lysates, Q62165 28-651 (receptor, UniProt Q62165 28-651, looked up)
chain: HWPSEPSEAVRDWKNQLEASMHSVLSDFQEAVPTVVGIPDGTAVVGRSFRVSIPTDLIASSGEIIKVSAAGKEALPSWLHWDPHSHILEGLPLDTDKGVHYISVSAARLGANGSHVPQTSSVFSIEVYPEDHNEPQSVRAASSDPGEVVPSACAADEPVTVLTVILDADLTKMTPKQRIDLLNRMQSFSEVELHNMKLVPVVNNRLFDMSAFMAGPGNAKKVVENGALLSWKLGCSLNQNSVPDIRGVETPAREGAMSAQLGYPVVGWHIANKKPTLPKRLRRQIHATPTPVTAIGPPTTAIQEPPSRIVPTPTSPAIAPPTETMAPPVRDPVPGKPTVTIRTRGAIIQTPTLGPIQPTRVSEAGTTVPGQIRPTLTIPGYVEPTAVITPPTTTTKKPRVSTPKPATPSTDSSTTTTRRPTKKPRTPRPVPRVTTKAPITRLETASPPTRIRTTTSGVPRGGEPNQRPELKNHIDRVDAWVGTYFEVKIPSDTFYDNEDTTTDKLKLTLKLREQQLVGEKSWVQFNSNSQLMYGLPDSSHVGKHEYFMHATDKGGLSAVDAFEIHVHKRPQGDKAPARFKARLAGDPAPVVNDIHKKIALVKKLAFAFGDRNCSSITLQNITRG
**Q.** With B1 as the binder, how does the binding read?
**A.** Its binding is “binds”.
